Data: patent publication US20150307625A1 (Bayer, published 2015)
No constants are given. Whether binding was seen depends on the method and setting. For some assays here: Binding can be weak; no strength is given.

Tests used:
[1] = molecular target: dog activated Protein C (dog); assay: direct ELISA, antigen coated at 1 ug/ml, IgG at 20 nM, anti-human IgG-HRP, AmplexRed (RFU)
activated Factor X [2] = assay: direct ELISA, FXa coated at 10 ug/ml, Fab at 20 nM, anti-human Fab-HRP, AmplexRed (RFU)
[3] = molecular target: dog activated Protein C (dog); assay: direct ELISA, antigen coated at 100 ng/well, Fab at 20 nM (1 ug/ml), anti-human Fab-HRP, AmplexRed (RFU)
[4] = molecular target: dog activated Protein C (dog); assay: species aPC ELISA
activated Factor IX [5] = assay: direct ELISA, FIXa coated at 5 ug/ml, Fab at 20 nM, anti-human Fab-HRP, AmplexRed (RFU)
activated Factor VII [6] = assay: direct ELISA, FVIIa coated at 10 ug/ml, Fab at 20 nM, anti-human Fab-HRP, AmplexRed (RFU)
activated Factor VII [7] = assay: direct ELISA, antigen coated
activated Factor IX [8] = assay: direct ELISA, antigen coated
activated Factor X [9] = assay: direct ELISA, antigen coated
[10] = molecular target: dog activated Protein C (dog); assay: direct ELISA, Fab at 20 nM
[11] = molecular target: rabbit activated Protein C (rabbit); assay: direct ELISA, hIgG1
[12] = molecular target: dog activated Protein C (dog); assay: direct ELISA, hIgG1
[13] = molecular target: rabbit activated Protein C (rabbit); assay: direct ELISA, antigen coated at 1 ug/ml, IgG at 20 nM, anti-human IgG-HRP, AmplexRed (RFU)
[14] = molecular target: rabbit activated Protein C (rabbit); assay: direct ELISA, IgG at 20 nM
[15] = molecular target: dog activated Protein C (dog); assay: direct ELISA, IgG at 20 nM
[16] = molecular target: mouse activated Protein C (mouse); assay: direct ELISA, antigen coated at 1 ug/ml, IgG at 20 nM, anti-human IgG-HRP, AmplexRed (RFU)
[17] = molecular target: mouse activated Protein C (mouse); assay: direct ELISA, IgG at 20 nM
[18] = molecular target: mouse activated Protein C (mouse); assay: direct ELISA, antigen coated at 100 ng/well, Fab at 20 nM (1 ug/ml), anti-human Fab-HRP, AmplexRed (RFU)
[19] = molecular target: mouse activated Protein C (mouse); assay: direct ELISA, Fab at 20 nM

Measured: binding

B1: O3E7 hIgG1 (antibody, V domains shown)
VH: EVQLLESGGGLVQPGGSLRLSCAASGFTFSSYSMNWVRQAPGKGLEWVSAISGSGGSTYYADSVKGRFTISRDNSKNTLYLQMNSLRAEDTAVYYCARDRRVRGIYDAFDMWGQGTLVTVTS
VL: QSVLTQPPSTSGTPGQRVTISCTGSSSNIGAGFDVHWYQQLPGTAPKLLIYGNSNRPSGVPDRFSGSKSGTSASLAISGLRSEDEADYYCATWQDTLTGWMFGGGTKLTVLG
notes: also called O3E7-IgG; 03E7
binds: [1]

B2: C7I7 Fab (Fab, V domains shown)
VH: EVQLLESGGGLVQPGGSLRLSCAASGFTFGNHWMTWVRQAPGKGLEWVSGVSWNGSRTHYADSVKGRFTISRDNSKNTLYLQMNSLRAEDTAVYYCALTGRSGWMRFPNWFDPWGQGTLVTVTS
VL: QSVLTQPPSASGTPGQRVTISCTGSSSNIGAGYDVHWYQQLPGTAPKLLIYGNSNRPSGVPDRFSGSKSGTSASLAISGLRSEDEAAYYCSSYVGSDLVVFGGGTKLTVLG
notes: Human Fab (lambda) from a phage library, expressed in E. coli; also called C717
binds: [3] | [4] | [10]
no binding (tested: 20 nM): activated Factor X [2] | activated Factor IX [5] | activated Factor VII [6] | activated Factor VII [7] | activated Factor IX [8] | activated Factor X [9]

B3: C25K23 IgG1 (antibody, V domains shown)
VH: EVQLLESGGGLVQPGGSLRLSCAASGFTFSSYWMSWVRQAPGKGLEWVSGVSWNGSRTHYADSVKGRFTISRDNSKNTLYLQMNSLRAEDTAVYYCALTGRSGWMRFPNWFDPWGQGTLVTVSS
VL: QSVLTQPPSASGTPGQRVTISCTGSSSNIGAAYDVHWYQQLPGTAPKLLIYGNNKRPSGVPDRFSGSKSGTSASLAISGLRSEDEADYYCQSYDSSLSGSVFGGGTKLTVLG
notes: the claims call them variable regions; also called C25K23 hIgG; C25K23 hIgG1
binds: [11] | [12] | [13] | [1] | [14] | [15]

B4: C25K23 Fab (Fab, V domains shown)
VH: EVQLLESGGGLVQPGGSLRLSCAASGFTFSSYWMSWVRQAPGKGLEWVSGVSWNGSRTHYADSVKGRFTISRDNSKNTLYLQMNSLRAEDTAVYYCALTGRSGWMRFPNWFDPWGQGTLVTVTS
VL: QSVLTQPPSASGTPGQRVTISCTGSSSNIGAAYDVHWYQQLPGTAPKLLIYGNNKRPSGVPDRFSGSKSGTSASLAISGLRSEDEADYYCQSYDSSLSGSVFGGGTKLTVLG
notes: Human Fab (lambda) from a phage library, expressed in E. coli; also called Fab C25K23
binds: [3] | [4] | [10]
no binding (tested: 20 nM): activated Factor X [2] | activated Factor IX [5] | activated Factor VII [6] | activated Factor VII [7] | activated Factor IX [8] | activated Factor X [9]

B5: C7A23 Fab (Fab, V domains shown)
VH: EVQLLESGGGLVQPGGSLRLSCAASGFTFGNHWMTWVRQAPGKGLEWVSGVSWNGSRTHYADSVKGRFTISRDNSKNTLYLQMNSLRAEDTAVYYCALTGRSGWMRFPNWFDPWGQGTLVTVTS
VL: QSVLTQPPSASGTPGQRVTISCSGSSSNIGNNYVSWYQQLPGTAPKLLIYRNNQRPSGVPDRFSGSKSGTSASLAISGLRSEDEADYYCQSYDSDLSGPYVLFGGGTKLTVLG
notes: Human Fab (lambda) from a phage library, expressed in E. coli
binds: [3] | [4] | [10]
no binding (tested: 20 nM): activated Factor X [2] | activated Factor IX [5] | activated Factor VII [6] | activated Factor VII [7] | activated Factor IX [8] | activated Factor X [9]

B6: T46J23-hIgG1 (antibody, V domains shown)
VH: EVQLLESGGGLVQPGGSLRLSCAASGFTFGNHWMTWVRQAPGKGLEWVSGVSWNGSRTHYADSVKGRFTISRDNSKNTLYLQMNSLRAEDTAVYYCALTGRSGWMRFPNWFDPWGQGTLVTVTS
VL: LTQPPSASGTPGQRVTISCTGTSSNIGAGYDVHWYQQLPGTAPKLLIYDNNNRPSGVPDRFSGSKSGTSASLAISGLRSEDEADYYCAAWDDSLNGVVFGGGTKLTVLG
notes: also called T46J23-IgG
binds: [11] | [12] | [13] | [1] | [16] | [14] | [15] | [17]

B7: C7I7 hIgG1 (antibody, V domains shown)
VH: EVQLLESGGGLVQPGGSLRLSCAASGFTFGNHWMTWVRQAPGKGLEWVSGVSWNGSRTHYADSVKGRFTISRDNSKNTLYLQMNSLRAEDTAVYYCALTGRSGWMRFPNWFDPWGQGTLVTVTS
VL: QSVLTQPPSASGTPGQRVTISCTGSSSNIGAGYDVHWYQQLPGTAPKLLIYGNSNRPSGVPDRFSGSKSGTSASLAISGLRSEDEAAYYCSSYVGSDLVVFGGGTKLTVLG
notes: also called C717-IgG
binds: [11] | [12] | [13] | [1] | [14] | [15]

B8: T46J23 Fab (Fab, V domains shown)
VH: EVQLLESGGGLVQPGGSLRLSCAASGFTFGNHWMTWVRQAPGKGLEWVSGVSWNGSRTHYADSVKGRFTISRDNSKNTLYLQMNSLRAEDTAVYYCALTGRSGWMRFPNWFDPWGQGTLVTVTS
VL: LTQPPSASGTPGQRVTISCTGTSSNIGAGYDVHWYQQLPGTAPKLLIYDNNNRPSGVPDRFSGSKSGTSASLAISGLRSEDEADYYCAAWDDSLNGVVFGGGTKLTVLG
notes: Human Fab (lambda), expressed in E. coli
binds: [3] | [18] | [4] | [10] | [19]
no binding (tested: 20 nM): activated Factor X [2] | activated Factor IX [5] | activated Factor VII [6] | activated Factor VII [7] | activated Factor IX [8] | activated Factor X [9]

B9: C7A23 hIgG1 (antibody, V domains shown)
VH: EVQLLESGGGLVQPGGSLRLSCAASGFTFGNHWMTWVRQAPGKGLEWVSGVSWNGSRTHYADSVKGRFTISRDNSKNTLYLQMNSLRAEDTAVYYCALTGRSGWMRFPNWFDPWGQGTLVTVTS
VL: QSVLTQPPSASGTPGQRVTISCSGSSSNIGNNYVSWYQQLPGTAPKLLIYRNNQRPSGVPDRFSGSKSGTSASLAISGLRSEDEADYYCQSYDSDLSGPYVLFGGGTKLTVLG
notes: also called C7A23-IgG
binds: [11] | [12] | [13] | [1] | [14] | [15]

B10: C22J13 hIgG1 (antibody, V domains shown)
VH: EVQLLESGGGLVQPGGSLRLSCAASGFTFSSNYMSWVRQAPGKGLEWVAVISYDGSNKYYADSVKGRFTISRDNSKNTLYLQMNSLRAEDTAMYYCALTGRSGWMRFPNWFDPWGQGTLVTVTS
VL: QSVLTQPPSASGTPGQRVTISCSGSDSNIGSNAVNWYQQLPGTAPKLLIYDNNKRPSGVPDRFSGSKSGTSASLAISGLRSEDEADYYCSSYTSSNTVVFGGGTKLTVLG
binds: [11] | [13] | [14]
